In patent US10918628B2, “Treatment of synucleinopathies” (Deutsches Zentrum für Neurodegenerative Erkrankungen e. V. …, priority 2016, dated 2021):
For at least one compound, name, drawing or mass did not settle the structure.

Columns and labels:
[1] = test system: α-syn overexpressing LUHMES cells; assay: LDH release into the culture medium as measure of α-syn-induced cell death; format: cell-based, human; conditions: 10 μM forskolin
α-syn = assay: Western blot quantification of α-syn bands; format: cell-based, human; conditions: α-Syn-transduced neurons with forskolin or BAY41-2272, FIG. 4d,e

Structure (SMILES): C=C[C@@]1(C)CC(=O)[C@]2(O)[C@@]3(C)[C@@H](O)CCC(C)(C)[C@@H]3[C@H](O)[C@H](OC(C)=O)[C@@]2(C)O1 [forskolin]
- influence on α-syn mediated toxicity (LDH release) [1]: no influence
- change of 37 kDa α-Syn band (Western blot, C20 antibody) (α-syn): increase of this band
